PubChem BioAssay AID2685 (National Center for Advancing Translational Sciences (NCATS), 2010)
The other results are listed elsewhere or left out. Further columns of the screen follow, without active or inactive calls. Compounds called inactive in the main read-out are mostly missing here. Words in brackets tell the shape of the fitted curve; partial curves, single points and poor fits give uncertain potencies.

Assay: qHTS Assay for Lipid Storage Modulators in Drosophila S3 Cells;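 for cell number change: cells counted by Cell Tracker Red CMTPX staining in the red channel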
Details: BODIPY lipid droplet fluorescence, 18-24 h; for cell number change: measured here: cell count max response, cells fed with added oleic acid
Procedure, shortened: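 Drosophila S3 cells loaded with oleic acid (400 uM, as added) and compounds at several concentrations; lipid droplets imaged by 488-nm laser-scanning cytometry, 500–530 nm intensity and object ratio to cell channel. Percent activity normalized to 20 uM Triacsin C.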

[1] = measured here: cell number channel AC50, cells fed with added oleic acid
[2] = measured here: lipid fluorescence (Fed channel) AC50, cells fed with added oleic acid

Row | Compound | cell number change [%] | AC50 [1] | AC50 [2]
1 | CCCN(CCC)C(=O)Cn1ccc(=N)c2ccccc21 | -28.5 | 0.00517 µM [falling, full curve] | 0.116 µM [falling, full curve]
2 | CCn1nnc(-c2ccccc2NC(=O)c2cc(OC)c(OC)c(OC)c2)n1 | 10.8 | – | –
3 | Cc1ccc(N2C(=O)N(Cc3ccccc3C)c3ccccc3S2(=O)=O)cc1 | 39.8 | 1.16 µM [rising, full curve] | 2.06 µM [rising, partial curve]
4 | O=C(O)C1CCN(S(=O)(=O)c2cccnc2)CC1 | 16.4 | – | 5.8 µM [falling, single point]
5 | COC(=O)c1ccc(-n2c(C)cc(-c3csc(NC(=O)c4ccc(S(=O)(=O)N(C)C)cc4)n3)c2C)cc1 | 24.9 | 2.91 µM [rising, full curve, poor fit] | 4.11 µM [rising, single point]
6 | Cc1nc(SCC(=O)c2ccccc2)c(C#N)c(-c2ccco2)c1C(=O)NCc1ccco1 | 18.5 | 0.291 µM [rising, partial curve, poor fit] | 0.366 µM [rising, partial curve]
7 | CCn1c(SCC(=O)N2CCCc3ccccc32)nnc1-c1ccco1 | -10.3 | – | –
8 | O=C(Cc1cccc2ccccc12)Nc1ccccc1C(=O)O | -65.1 | 29.1 µM [falling, single point] | 29.1 µM [falling, single point]
9 | C=CC[N+](C)(C)CCN1C(=O)C2C(c3ccccc3)C=CC(c3ccccc3)C2C1=O (stereo not drawn) | -19 | – | 5.17 µM [falling, partial curve]
10 | FC(F)(F)c1ccc(Oc2ccc3ccccc3c2Br)nc1 | -37.5 | 8.2 µM [falling, partial curve] | 11.6 µM [falling, partial curve]
11 | O=C(COc1ccc(S(=O)(=O)NC2CCCCC2)cc1)N1CCN(c2ccc(F)cc2)CC1 | 25.3 | – | 10.3 µM [falling, partial curve]
12 | O=C(Nc1ccon1)C12CC3CC(C1)CC(n1cnc([N+](=O)[O-])n1)(C3)C2 | – | – | 0.58 µM [falling, single point]
13 | COCCNC(=S)N(CCCN(C)C)Cc1cc2cc3c(cc2[nH]c1=O)OCCO3 | 18.6 | – | 29.1 µM [rising, single point]
14 | COc1ccc(CNc2cc(C)nc3ncnn23)c(OC)c1 | -52.7 | 14.6 µM [falling, partial curve] | 1.84 µM [rising, partial curve]
15 | COc1ccccc1C(=O)Nc1nnc(S(=O)(=O)N2CCCCCC2)s1 | 3.89 | – | –

Only AC50 [1] and cell number change [%] (2 entries from above):
Row	Compound	AC50 [1]	cell number change [%]
3	Cc1ccc(N2C(=O)N(Cc3ccccc3C)c3ccccc3S2(=O)=O)cc1	1.16 µM [rising, full curve]	39.8
11	O=C(COc1ccc(S(=O)(=O)NC2CCCCC2)cc1)N1CCN(c2ccc(F)cc2)CC1	–	25.3
